pIC50: −log10 of the molar value.
Biological target: récepteurs β adrénergiques
Assay: displacement of [^3H]CGP 12177 previously bound on newborn rat cardiomyocytes
Assay type: binding
Details: [^3H]CGP 12177 5.10^-9M, 30 minutes d'incubation; cardiomyocytes de rats nouveau-nés; read-out: CI50 (the source's name)
Experimental: Dans cet exemple, on teste l'affinité du composé 6 marqué avec ^123I vis-à-vis des récepteurs β adrénergiques.
On étudie sur cardiomyocytes de rats nouveau-nés la capacité du composé 6 à déplacer le [^3H]CGP 12177 préalablement fixé sur les récepteurs.
A la dose de 5.10^-9M et après 30 minutes d'incubation, le [^3H]CGP 12177 occupe tous les récepteurs β adrénergiques des cardiomyocytes.

pIC50: 6.72
SMILES: CC(C)NCC(O)COc1cccc2ccccc12 (stereo not shown) [propranolol]
